Laboratory results: PubChem BioAssay AID1259254 (NCATS, 2017)
Purpose: 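Finding genes that stop cells copying their DNA twice in one cycle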 (primary screen). Cell system: human HCT116 colorectal cancer cells. Reagent: single siRNA against human genes. Duration: 3 days. Measurement: 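Nuclei stained with Hoechst and imaged; cell-cycle phase assigned by DNA content; G2 share scaled per plate, non-targeting siRNA 0%, GMNN siRNA 100%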. Scale: G2 robust z-score: higher = more G2 cells, more excess DNA replication. Rule for the call: 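Active siRNAs have a G2 robust z of 5 or more median absolute deviations over the median, which in these data means about 38% or higher of GMNN control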.
This is a random part of about 59,000 reagents. About 1,550 of them (2.6%) were called active. 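G2 share is only a proxy for re-replication; each gene was hit by three separate siRNAs, and active genes were retested.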 Reagents against one gene are numbered here. Not all columns of the deposit are shown. The record does not give: the amount of reagent.

After knock-down of DBF4B (GeneID 80174) #1, the record shows G2 robust z-score -0.589; inactive.
Against DBF4B (GeneID 80174) #2 the deposit lists G2 robust z-score -0.763; inactive.
Silencing of DBF4B (GeneID 80174) #3 came out at: G2 robust z-score 0.515; inactive.
RASL10A (GeneID 10633) #1 gave G2 robust z-score 0.0685; inactive.
Against RASL10A (GeneID 10633) #2, the entry reads G2 robust z-score -0.505; inactive.
After knock-down of RASL10A (GeneID 10633) #3, the screen gave G2 robust z-score -1.67; inactive.
For MORF4L2 (GeneID 9643) #1 the deposit lists G2 robust z-score 1.8; inactive.
Knock-down of MORF4L2 (GeneID 9643) #2 gave: G2 robust z-score 0.824; inactive.
For MORF4L2 (GeneID 9643) #3, the entry reads G2 robust z-score 5.44; active.
For TPTE (GeneID 7179) #1, the values are G2 robust z-score -1.32; inactive.
After knock-down of TPTE (GeneID 7179) #2 the results were G2 robust z-score -1.69; inactive.
TPTE (GeneID 7179) #3 scored G2 robust z-score 0.218; inactive.
After knock-down of SIRT7 (GeneID 51547) #1, the record shows G2 robust z-score -0.642; inactive.
With knock-down of SIRT7 (GeneID 51547) #2, the screen gave G2 robust z-score -0.373; inactive.
Silencing of SIRT7 (GeneID 51547) #3 resulted in: G2 robust z-score 1.68; inactive.
For UROD (GeneID 7389) #1 the deposit lists G2 robust z-score 0.746; inactive.
UROD (GeneID 7389) #2 scored G2 robust z-score -0.63; inactive.
Depletion of UROD (GeneID 7389) #3 resulted in: G2 robust z-score 0.96; inactive.
PSD2 (GeneID 84249) #1 gave G2 robust z-score -0.0807; inactive.
For PSD2 (GeneID 84249) #2, the entry reads G2 robust z-score 3.25; inactive.
After knock-down of PSD2 (GeneID 84249) #3, the screen gave G2 robust z-score 1.07; inactive.
SLC8A2 (GeneID 6543) #1 gave G2 robust z-score 1.25; inactive.
SLC8A2 (GeneID 6543) #2 gave G2 robust z-score 0.195; inactive.
After knock-down of SLC8A2 (GeneID 6543) #3 the results were G2 robust z-score -0.503; inactive.

Individual results from the list.
Under “G2 robust z-score”, SIRT7 (GeneID 51547) #1 is entered as -0.642
Value of UROD (GeneID 7389) #3 under “call”: inactive
